# At least one structure is not confirmed: it was looked up by name or label, or the drawing left a doubt.
# Test system: Wistar rats
# Test: Acute survival study after LPS
# Type: in vivo, rat
# Details: post-treatment 10 min after LPS 10 mg/kg; FIG. 6
# Procedure: The animal experiment is approved by the Animal Care and Use Committee at the Kaohsiung Medical University. The male Wistar rats, weighing 250-350 g, are provided by the National Laboratory Animal Breeding and Research Center (Taipei, Taiwan). The rats are housed under conditions of constant temperature and controlled illumination (light regime of 12 h light and 12 h darkness). The rats are allowed food and water ad libitum. They are anesthetized with an intraperitoneal (i.p.) injection of pentobarbital sodium (50 mg/kg). Following tracheal cannulation, systemic arterial blood pressure and heart rate are recorded from the femoral artery with a pressure transducer (Spectramed, Model P10EZ, USA). Body temperature is maintained at 37° C. by an electric heating pad. A femoral vein is cannulated for the administration of LPS (E. coli serotype 026:B6), HBCM, baicalin, or dexamethasone (DEXA), respectively. The rats are injected intravenously with either saline (0.1 ml/kg) or LPS (10 mg/kg) for control and experimental purposes, respectively. All the animals are assigned to one of the following groups: saline only, LPS/saline, LPS/HBCM (75 mg/kg), LPS/baicalin (1.5 mg/kg), and LPS/DEXA (0.5 mg/kg) groups. […]
# The animals without pulmonary are monitored per 30 minutes for 7 hours after LPS administration. The blood pressure (BP) changes were recorded within 5 hours after LPS injection. […]
smiles,measurement,value
"C[C@@H]1C[C@H]2[C@@H]3CCC4=CC(=O)C=C[C@]4(C)[C@@]3(F)[C@@H](O)C[C@]2(C)[C@@]1(O)C(=O)CO [DEXA, dexamethasone]",survival rate compared with LPS/saline group,significantly better survival rate

# From US20070104803A1, “Chinese herbal composition for treating diseases” (Kaohsiung Medical University, priority 2005, published 2007)
